Patent US20240383959A1, “CELL-FREE METHODS AND COMPOSITIONS COMPRISING TAGLESS THERAPEUTIC HORMONES” (Northwestern University, priority 2021, published 2024)
No constants are given. Whether binding was seen depends on the method and setting. Some results given as binding are weak or reduced against the parent protein; the word gives no strength. Where a sequence is shown, tags or fusion partners need not be part of it. Values belong to the binder of their own block, whether it stands above or below them.

Sequences of proteins named here, by UniProt entry; tags and fusion partners are left off. A change or cut given only in a name is not applied to a line headed by its entry. Residues count along the entry.
UniProt P43220, residues 24-145: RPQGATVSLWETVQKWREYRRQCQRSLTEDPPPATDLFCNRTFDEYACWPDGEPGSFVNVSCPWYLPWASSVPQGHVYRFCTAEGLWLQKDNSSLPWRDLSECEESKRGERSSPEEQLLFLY
UniProt Q03431, residues 27-186: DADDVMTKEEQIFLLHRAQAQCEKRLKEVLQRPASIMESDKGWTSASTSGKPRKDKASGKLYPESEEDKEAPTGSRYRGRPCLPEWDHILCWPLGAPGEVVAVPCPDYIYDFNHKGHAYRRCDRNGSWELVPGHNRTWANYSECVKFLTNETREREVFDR

Experiments:
[1] = molecular target: Fc-tagged extracellular domain of the GLP-1 receptor (Sino Biological, 13944-H02H) (UniProt P43220); assay: AlphaLISA cross titration (FIG. 9e)
[2] = molecular target: Fc-tagged extracellular domain of the GLP-1 receptor (Sino Biological, 13944-H02H) (UniProt P43220); assay: AlphaLISA, sFLAG-tagged GLP-1 on anti-FLAG donor beads, Fc-tagged receptor ECD on Protein A acceptor beads
[3] = molecular target: His-tagged PTH receptor (Abcam ab182670), extracellular domain (UniProt Q03431); assay: AlphaLISA cross titration (FIG. 10b)
[4] = molecular target: His-tagged PTH receptor (Abcam ab182670), extracellular domain (UniProt Q03431); assay: AlphaLISA, sFLAG-tagged PTH on anti-FLAG donor beads, His-tagged receptor on nickel chelate acceptor beads

binding [1]: binds
binding [2]: binds
Binder: HAEGTFTSDVSSYLEGQAAKEFIAWLVKGRGGGGSGGGDYKDEDLL [sFLAG tagged GLP-1 produced in CFPS]

binding [3]: binds
binding [4]: binds
B1: sFLAG-tagged PTH produced in CFPS (ligand)
chain: SVSEIQLMHNLGKHLNSMERVEWLRKKLQDVHNFVALGAPLAPRDAGSQRPRKKEDNVLVESHEKSLGEADKADVNVLTKAKSQGGGSGGGDYKDEDLL
